The experiment relates to CD8F1 mice, subcutaneous mammary adenocarcinoma, T/C%. The experiment can be described thus: NCI In Vivo Anticancer Drug Screen. Data for tumor model Mammary Adenocarcinoma CD8F1 (subcutaneous) in CD8F1. The settings on record: higher T/C = larger tumour. As for the experimental part: The antitumor activity of compounds was measured in mice bearing transplantable tumors. Survival or tumor size were measured and the results are expressed as the measurement made in the treated group (T) divided by the measurement made in the vehicle treated control group (C). The tumor model used in this assay is Mammary Adenocarcinoma CD8F1 (subcutaneous) in CD8F1

Where [1] appears, read: T/C endpoint: median tumor weight change, dose: 500.0 mg/kg/injection, schedule: Q01DX001 (ip), vehicle: saline with Tween-80.
Where [2] appears, read: T/C endpoint: median tumor weight (est.), dose: 25.0 mg/kg/injection, schedule: Q07DX005 (ip), vehicle: Klucel (hydroxypropylcellulose) (HPC), evaluated on day 30.
[3] abbreviates: T/C endpoint: median tumor weight change, dose: 250.0 mg/kg/injection, schedule: Q01DX001 (ip), vehicle: saline with Tween-80.
The mark [4] stands for this setting: T/C endpoint: median tumor weight change, dose: 1000.0 mg/kg/injection, schedule: Q01DX001 (ip), vehicle: saline with Tween-80.
[5] abbreviates: T/C endpoint: median tumor weight change, dose: 250.0 mg/kg/injection, schedule: Q01DX001 (ip), vehicle: saline.
[6] abbreviates: T/C endpoint: median tumor weight change, dose: 500.0 mg/kg/injection, schedule: Q01DX001 (ip), vehicle: saline.
Setting [7] is: T/C endpoint: median tumor weight change, dose: 1000.0 mg/kg/injection, schedule: Q01DX001 (ip), vehicle: saline.

We go through 22 compounds from PubChem BioAssay AID220 (DTP/NCI, 2004).

Each structure is given as a SMILES string. The list is a part of this screen's results and no random one: it is rich in T/C values a quarter to a half above the control, in often repeated tests (any T/C) and in doses without a T/C. Other doses and runs of a compound stand elsewhere. T/C: endpoint of the treated group in % of that of the vehicle group. Schedules are NCI's codes, taken here to give the interval after Q, in days (D) or hours (H), and the number of doses after X. Some entries hold several experiments; the results are listed from low to high. Some T/C values carry the count of animals alive at the toxicity check (mostly the fifth day); where none is given, no animal had died by that day. Some entries give survivors of the animals treated and no T/C: the source holds a T/C of zero for them, seemingly a mark for toxic or unscored doses. Survivors were counted at the toxicity check, usually on the fifth day, unless a day is given; later deaths do not show.

In the case of `NCCc1ccc(O)c(O)c1`, the survivor count is, setting by setting: (T/C endpoint: mean tumor weight, dose: 150.0 mg/kg/injection, schedule: Q07DX005 (ip), vehicle: saline) 3 of 6; (T/C endpoint: median tumor weight (est.), dose: 150.0 mg/kg/injection, schedule: Q07DX005 (ip), vehicle: saline) 3 of 6; (T/C endpoint: median tumor weight (est.), dose: 600.0 mg/kg/injection, schedule: Q07DX005 (ip), vehicle: saline) 3 of 6. The T/C is 144 % of control [7 of 10 alive] (T/C endpoint: median tumor weight (est.), dose: 50.0 mg/kg/injection, schedule: Q07DX005 (ip), vehicle: saline, evaluated on day 30) and 141 % of control [7 of 10 alive] (T/C endpoint: median tumor weight (est.), dose: 200.0 mg/kg/injection, schedule: Q07DX005 (ip), vehicle: saline, evaluated on day 32).

With `Cc1cc2cc3cc(C)c(N)cc3nc2cc1N`, the survivor count under setting [1] is given as 1 of 10 on day 31.

Consider `O=[N+]([O-])O.O=[N+]([O-])O.[NH-]C1CCCCC1[NH-].[Pt+2]` (stereo not drawn), for which the T/C (T/C endpoint: median tumor weight (est.), dose: 2.0 mg/kg/injection, schedule: Q07DX005 (ip), vehicle: dextrose, evaluated on day 30) was 133 % of control.

Regarding `c1ccc(CN2CCOC2)cc1`, the survivor count is given as 0 of 10 on day 30 (T/C endpoint: median tumor weight (est.), dose: 200.0 mg/kg/injection, schedule: Q07DX005 (ip), vehicle: suspension in saline) and 0 of 10 on day 30 (T/C endpoint: median tumor weight (est.), dose: 400.0 mg/kg/injection, schedule: Q07DX005 (ip), vehicle: suspension in saline).

Take `CCOC(=O)c1ccc(NN=NCCF)cc1`: the survivor count (T/C endpoint: median tumor weight change, dose: 250.0 mg/kg/injection, schedule: Q01DX001 (ip), vehicle: distilled water + Tween-80) is given as 0 of 10 on day 40.

On to `CC(=O)OCC1OC(OC2=C(CC=C(C)C)C(=O)c3ccccc3C2=O)C(OC(C)=O)C(OC(C)=O)C1OC(C)=O` (stereo not drawn), for which the T/C runs as follows: under setting [2], 143 % of control [9 of 10 alive]; (T/C endpoint: median tumor weight (est.), dose: 100.0 mg/kg/injection, schedule: Q07DX005 (ip), vehicle: Klucel (hydroxypropylcellulose) (HPC), evaluated on day 30) 131 % of control.

Regarding `CN=C(N)N/N=C(\C)c1ccc2oc3ccc(/C(C)=N/NC(N)=NC)cc3c2c1`, the survivor count under setting [3] was 0 of 10 on day 38, the survivor count under setting [1] was 0 of 10 on day 38 and the survivor count under setting [4] is 0 of 10 on day 38.

Regarding `CCC1OC(OC)C=CC1=O` (stereo not drawn), the T/C (T/C endpoint: median tumor weight change, dose: 62.5 mg/kg/injection, schedule: Q01DX001 (ip), vehicle: saline, evaluated on day 40) was 139 % of control. Besides, the survivor count runs as follows: (T/C endpoint: median tumor weight change, dose: 125.0 mg/kg/injection, schedule: Q01DX001 (ip), vehicle: saline) 6 of 10 on day 40; under setting [5], 0 of 10 on day 40; under setting [6], 0 of 10 on day 40; under setting [7], 0 of 10 on day 40.

As for `CCN(CC)CCOC(=O)Cc1cccc2c(=O)cc(-c3ccccc3)oc12`, under “T/C endpoint: median tumor weight (est.), dose: 12.5 mg/kg/injection, schedule: Q07DX005 (ip), vehicle: saline, evaluated on day 30”, the T/C was 145 and 147 % of control. Moreover, the survivor count was 2 of 10 on day 30 (T/C endpoint: median tumor weight (est.), dose: 200.0 mg/kg/injection, schedule: Q07DX005 (ip), vehicle: saline) and 0 of 10 on day 30 (T/C endpoint: median tumor weight (est.), dose: 400.0 mg/kg/injection, schedule: Q07DX005 (ip), vehicle: saline).

`CO[C@H](/C(C)=C/C=C/C(C)=C/c1coc(C)n1)[C@H](C)[C@H]1C[C@@H](O)[C@@]2(C)O[C@H]2/C=C/[C@@H](C)[C@@H]2C[C@@H](CC(=O)O2)C[C@H]2O[C@@H]2C(=O)O1`: the T/C (T/C endpoint: median tumor weight change, dose: 0.12 mg/kg/injection, schedule: Q01DX001 (ip), vehicle: Klucel (hydroxypropylcellulose) (HPC), evaluated on day 27) is 149 % of control.

`O=c1[nH]c(=O)n([C@H]2CCCO2)cc1F`: the T/C is 139 % of control [9 of 10 alive] under setting [2] and 130 % of control (T/C endpoint: median tumor weight (est.), dose: 80.0 mg/kg/injection, schedule: Q07DX005 (ip), vehicle: Klucel (hydroxypropylcellulose) (HPC), evaluated on day 30). Moreover, the survivor count (T/C endpoint: median tumor weight (est.), dose: 640.0 mg/kg/injection, schedule: Q07DX005 (ip), vehicle: Klucel (hydroxypropylcellulose) (HPC)) is 5 of 10.

As to `CCN(CC)CCNc1ccc(C)c2sc3ccc(O)cc3c(=O)c12`, the T/C (T/C endpoint: median tumor weight change, dose: 125.0 mg/kg/injection, schedule: Q01DX001 (ip), vehicle: saline with Tween-80, evaluated on day 36) was 129 % of control. The survivor count under setting [4] was 6 of 10 on day 36.

On to `CC[C@H]1CN2CCc3cc(OC)c(OC)cc3[C@@H]2C[C@@H]1C[C@H]1NCCc2cc(O)c(OC)cc21`, for which, for the setting “T/C endpoint: median tumor weight (est.), dose: 1.0 mg/kg/injection, schedule: Q07DX005 (ip), vehicle: saline, evaluated on day 30”, the T/C was 135 % of control.

For the compound `COC(=O)Nc1nc2ccc(C3(c4ccc(F)cc4)OCCO3)cc2[nH]1`, the survivor count by setting is: under setting [5], 4 of 10 on day 29; under setting [6], 2 of 10 on day 29; under setting [7], 0 of 10 on day 29; (T/C endpoint: median tumor weight change, dose: 2000.0 mg/kg/injection, schedule: Q01DX001 (ip), vehicle: saline) 0 of 10 on day 29; (T/C endpoint: median tumor weight change, dose: 2000.0 mg/kg/injection, schedule: Q01DX001 (ip), vehicle: suspension in saline) 0 of 10 on day 34.

For the compound `CC(=O)Nc1ccc(Nc2ccc(C(=C3C=CC(=[N+](C)CCC#N)C=C3)c3ccc(N(C)CCC#N)cc3)cc2)cc1`, the survivor count by setting is: under setting [3], 1 of 9 on day 35; under setting [1], 0 of 10 on day 35; under setting [4], 0 of 10 on day 35; (T/C endpoint: median tumor weight change, dose: 2000.0 mg/kg/injection, schedule: Q01DX001 (ip), vehicle: saline with Tween-80) 0 of 10 on day 35.

For `CC[C@@]1(O)C[C@H](OC2CC(N(C)C)C(OC3CC(O)C(OC4CCC(=O)C(C)O4)C(C)O3)C(C)O2)c2c(cc3c(c2O)C(=O)c2c(O)ccc(O)c2C3=O)[C@H]1C(=O)OC` (stereo partly drawn), for the setting “T/C endpoint: median tumor weight (est.), dose: 1.0 mg/kg/injection, schedule: Q07DX005 (ip), vehicle: water, evaluated on day 32”, the T/C is 137 % of control.

For `COc1cccc2c1C(=O)c1c(O)c3c(c(O)c1C2=O)CC(O)(/C(C)=N/NC(=O)CCCCC(=O)N/N=C(\C)C1(O)Cc2c(O)c4c(c(O)c2C(OC2CC(N)C(O)C(C)O2)C1)C(=O)c1c(OC)cccc1C4=O)CC3OC1CC(N)C(O)C(C)O1` (stereo not drawn), the survivor count (T/C endpoint: median tumor weight change, dose: 62.0 mg/kg/injection, schedule: Q01DX001 (ip), vehicle: water) is on record as 1 of 10 on day 26 and the survivor count (T/C endpoint: median tumor weight change, dose: 125.0 mg/kg/injection, schedule: Q01DX001 (ip), vehicle: water) is 0 of 10 on day 26.

On to `NC(Cc1ccc(N(CCCl)CCCl)cc1)C(=O)O` (stereo not drawn), for which the survivor count was 0 of 10 on day 32 (T/C endpoint: median tumor weight (est.), dose: 32.0 mg/kg/injection, schedule: Q07DX005 (ip), vehicle: Klucel (hydroxypropylcellulose) (HPC)) and 0 of 10 on day 32 (T/C endpoint: median tumor weight (est.), dose: 64.0 mg/kg/injection, schedule: Q07DX005 (ip), vehicle: Klucel (hydroxypropylcellulose) (HPC)).

On to `Cc1cc(O)c2c(c1O)C(=O)C13C(=C2O)C(=O)C2C(O)C1C1C(O)C3C(=O)C3=C(O)c4c(O)cc(C)c(O)c4C(=O)C321` (stereo not drawn), for which the survivor count is, setting by setting: (T/C endpoint: median tumor weight change, dose: 62.5 mg/kg/injection, schedule: Q01DX001 (ip), vehicle: saline with Tween-80) 4 of 10 on day 31; (T/C endpoint: median tumor weight change, dose: 125.0 mg/kg/injection, schedule: Q01DX001 (ip), vehicle: saline with Tween-80) 4 of 10 on day 31; under setting [3], 0 of 10 on day 31.

In the case of `Cc1cccc(-[n+]2noc(N)n2)c1`, the survivor count reads like this: (T/C endpoint: median tumor weight change, dose: 250.0 mg/kg/injection, schedule: Q01DX001 (ip), vehicle: water) 0 of 10 on day 30; (T/C endpoint: median tumor weight change, dose: 500.0 mg/kg/injection, schedule: Q01DX001 (ip), vehicle: water) 0 of 10 on day 30; (T/C endpoint: median tumor weight change, dose: 1000.0 mg/kg/injection, schedule: Q01DX001 (ip), vehicle: water) 0 of 10 on day 30.

As for `CC(=O)[C@H]1CC[C@H]2[C@@H]3C[C@H](C)C4=CC(=O)CC[C@]4(C)[C@H]3C(=O)C[C@]12C`, where the note is “T/C endpoint: mean tumor weight, dose: 800.0 mg/kg/injection, schedule: Q07DX006 (ip), vehicle: saline”, the survivor count is given as 6 of 10.

Turning to `C/C(=N\NC(=S)N1CCN(c2ccccn2)CC1)c1ccccn1`, the T/C (T/C endpoint: median tumor weight change, dose: 6.25 mg/kg/injection, schedule: Q01DX001 (ip), vehicle: other, evaluated on day 26) was 128 % of control. The survivor count (T/C endpoint: median tumor weight change, dose: 100.0 mg/kg/injection, schedule: Q01DX001 (ip), vehicle: other) is listed as 2 of 10 on day 26.
